# Results reported in doi:10.1101/2024.09.12.612777 (bioRxiv, 2024).
# Protein sequences, listed by entry. Tags and fused reporters are not part of them. Lines headed by an entry give the natural chain unless they say otherwise; changes in a name come on top.
# UniProt Q9M9N3: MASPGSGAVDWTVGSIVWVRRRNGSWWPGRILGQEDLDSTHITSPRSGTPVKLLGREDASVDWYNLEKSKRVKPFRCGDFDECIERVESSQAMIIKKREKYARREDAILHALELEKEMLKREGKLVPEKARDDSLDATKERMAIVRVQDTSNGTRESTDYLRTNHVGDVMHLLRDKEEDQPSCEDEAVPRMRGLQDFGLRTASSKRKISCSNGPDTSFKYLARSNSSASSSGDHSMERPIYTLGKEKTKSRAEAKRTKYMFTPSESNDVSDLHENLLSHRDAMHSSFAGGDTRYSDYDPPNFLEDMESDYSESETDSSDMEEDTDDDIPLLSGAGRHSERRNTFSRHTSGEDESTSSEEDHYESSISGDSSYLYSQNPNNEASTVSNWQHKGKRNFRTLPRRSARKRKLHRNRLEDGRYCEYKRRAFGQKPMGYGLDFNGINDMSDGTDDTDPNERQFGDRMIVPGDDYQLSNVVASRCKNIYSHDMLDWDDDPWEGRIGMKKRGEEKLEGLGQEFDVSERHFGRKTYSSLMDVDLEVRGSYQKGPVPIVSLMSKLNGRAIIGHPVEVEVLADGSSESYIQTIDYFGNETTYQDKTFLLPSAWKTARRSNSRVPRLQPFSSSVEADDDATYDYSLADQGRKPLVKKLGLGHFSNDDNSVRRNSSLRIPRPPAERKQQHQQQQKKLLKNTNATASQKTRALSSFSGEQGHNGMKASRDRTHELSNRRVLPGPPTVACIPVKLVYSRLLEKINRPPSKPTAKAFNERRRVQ
# These are yes or no findings as the source states them, for the method shown. Binding can be weak; no strength is given.
# Legend:
# [1] = molecular target: T1, AL2 (recombinant, pull-down) (Arabidopsis thaliana) (UniProt Q9SRM4); assay: pull-down
# T1 sequence: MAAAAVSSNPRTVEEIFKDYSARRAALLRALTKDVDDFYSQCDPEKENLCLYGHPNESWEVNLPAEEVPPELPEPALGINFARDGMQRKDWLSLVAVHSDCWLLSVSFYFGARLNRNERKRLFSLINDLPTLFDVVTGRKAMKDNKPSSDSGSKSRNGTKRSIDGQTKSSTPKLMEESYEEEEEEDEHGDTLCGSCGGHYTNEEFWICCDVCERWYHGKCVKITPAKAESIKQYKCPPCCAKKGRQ
# [2] = molecular target: T2, RING1A (recombinant, pull-down) (Arabidopsis thaliana, UniProt Q9FKW0 1-522); assay: pull-down
# T2 sequence (looked up): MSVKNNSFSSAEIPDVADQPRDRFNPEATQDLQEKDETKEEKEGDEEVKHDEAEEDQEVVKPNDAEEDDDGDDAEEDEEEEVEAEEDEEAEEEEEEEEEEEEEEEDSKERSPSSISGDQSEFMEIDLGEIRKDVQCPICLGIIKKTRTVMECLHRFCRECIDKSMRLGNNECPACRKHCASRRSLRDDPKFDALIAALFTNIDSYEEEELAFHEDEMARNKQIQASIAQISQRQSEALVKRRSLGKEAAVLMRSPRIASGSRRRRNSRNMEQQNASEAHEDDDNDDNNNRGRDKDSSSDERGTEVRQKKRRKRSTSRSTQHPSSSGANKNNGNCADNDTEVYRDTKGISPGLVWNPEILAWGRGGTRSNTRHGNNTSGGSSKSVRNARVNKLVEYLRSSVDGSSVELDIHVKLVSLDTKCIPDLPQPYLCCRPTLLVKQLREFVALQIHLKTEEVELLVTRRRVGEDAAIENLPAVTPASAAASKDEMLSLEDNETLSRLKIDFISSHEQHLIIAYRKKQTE
binding [1],binding [2],Substance
binds,,PWWP1 (PEAT complex subunit) (from UniProt Q9M9N3)
binds,binds,"BMI1B (recombinant, pull-down) (Arabidopsis thaliana)"
